US20100291596A1, “SCREENING METHOD FOR AGENTS SUITABLE FOR THERAPY OF ALZHEIMER'S DISEASE” (FREIE UNIVERSITAT BERLIN, priority 2007, published 2010)
Entries after “also recorded” stand apart in the source; their conditions may differ. At least one compound was matched to its structure with a doubt left.

How the values were obtained:
gamma-secretase [1] = biological target: T1, gamma-secretase (Homo sapiens, UniProt P49768); experiment: Quantification of gamma-secretase inhibition: average YFP fluorescence of HEK293 cells expressing APP-CTF-YFP; format: cell-based; conditions: 5 μM, 6 h
T1 construct: HEK293 expressing SPA4CT-YFP were spread into a 96-well dish and were treated with NSAIDs or controls for 6 h; endogenous in cells; host or cells: HEK293 (ATCC CRL-1573)
Procedure: (§1) To quantify the effects of NSAIDs on gamma-secretase activity, HEK293 expressing SPA4CT-YFP were spread into a 96-well dish and were treated with NSAIDs or controls for 6 h. Intensity of YFP fluorescence was quantified with adjusted filters in a 96-well fluorescence reader (company BertholdTech, Mithras). (i) Cells expressing a fusion protein comprising the substrate of gamma-secretase (APP-CTF) and a fluorescent protein (fp) are incubated with the drug candidate in a 96 well plate. Prior to addition to the cells, the drug is dissolved in EtOH or DMSO. Controls are (1) untreated culture medium, (2) culture medium containing EtOH or DMSO, and (3) culture medium with known inhibitors of gamma-secretase. After incubation for 6 h to 24 hours the fluorescence is determined. If gamma-secretase is active, the fusion protein is degraded and the fluorescent protein spreads in the cell, e.g., the cell cytoplasm. As a consequence, intensive fluorescence is not detectable. If the gamma-secretase is inhibited, the substrate of gamma-secretase accumulates at the plasma membrane resulting in an intensive (and traceable) fluorescence (see, for further experimental details and results FIGS. 1 and 1.II and the figure legend). Drug candidates which inhibit the biological activity (i.e. cleavage of the substrate) of gamma-secretase are discarded.

[2] = tested on: Abeta species from APP G33A-transfected cells; experiment: ELISA quantification of Abeta species secreted from APP G33A-transfected cells; format: cell-based
Procedure: (§2) Quantification of Abeta 42, Abeta 40 and Abeta38 with ELISA Stably transfected cells were plated at a density of 2.8×10^5 cells per 12-well. The day after splitting, 200 μl of fresh media supplemented with NSAIDs or control vehicles were added and incubated for 6 h. For Abeta40 and Abeta42-specific ELISAs, 50 μl of media were analyzed according to the manufacturer's instruction (The Genetics company (TGC), Basel, Switzerland). The same protocol was applied to determine Abeta38 levels, except that the antibody BAP-29 (provided by M. Brockhaus, Roche, Basel, Switzerland) was used.
The effect of the drugs on the dimerization motif GxxxG of TMS of APP is assayed. Drug candidates were added to the cell culture medium containing APP-CTF, APP or APPsw expressing neuronal cells or cells containing the APP-processing machinery as described in Example 2. In addition, cell lines were assayed expressing altered APP molecules characterized by a mutated GxxxG motif. Binding of the compounds to the APP GxxxG motif results in an altered processing only of the wild type proteins, but not the altered GxxxG motif of mutants (see, for further experimental details and results FIG. 5 and the figure legend).
Detection and characterization of the binding of the drug candidate to the GxxxG motif. Binding of the compounds to Abeta42 is verified by use of BIACORE and the KD-value is determined. Binding of the compounds to the GAIIG motif should lead to lack of binding to corresponding Abeta42-fragments or GxxxG mutant peptides. Similarly, using ELISA with synthetical peptides binding of NSAIDs can be determined via a competition assay (see, for further experimental details and results FIG. 6 and the figure legend).

[3] = tested on: Abeta species secreted from SH-SY5Y cells which stably express wild type APP; experiment: ELISA quantification of Abeta species secreted from SH-SY5Y cells stably expressing wild type APP; format: cell-based, human; conditions: APP wt, 6 h
Procedure: as §2
(ii) Initially, the cytotoxicity of the compounds in cultures of neuronal cells is determined using a cell proliferation assay or an assay based on viable cells (FIG. 2). Then, APP-CTF, APP or APPsw (APPsw: APP with the familial AD mutation “swedish” (K670N M671L); APP-CTF: APP-C-terminal fragment; CTF: after alpha- or beta-secretase cleavage) expressing cells are incubated with the drug candidate (two different concentrations, 96 well plate format). After incubation for 6 to 24 h the amount of Abeta42 secreted from the cell culture medium is determined using ELISA (see, for further experimental details and results FIG. 3 and the figure legend). Drug candidates causing a reduction of the amount of Abeta42 are assayed in a further step comprising ELISA and MALDI-MS. First, the amounts of Abeta40 and Abeta38 (as well as additional possible Abeta species) are quantified by use of ELISA. Then, the entire spectrum of secreted Abeta species is assayed using immunoprecipitation and MALDI-MS analysis (see, for further experimental details and results FIG. 4 and the figure legend). Compounds leading to reduced amounts of Abeta42 and increased amounts of shorter Abeta species are selected and assayed in a further screening step.

gamma-secretase [4] = biological target: T1, gamma-secretase; experiment: Confocal laser scanning microscopy of subcellular distribution of APP-CTF-YFP in HEK293 cells expressing SPA4CT-YFP; format: cell-based; conditions: 3 μM added to cell culture medium, 6 h
Procedure: HEK293 cells were transiently transfected with SPA4CT-YFP. After 24 h, cells were treated with varying concentrations (indicated in the figures) of different NSAIDs, gamma-secretase inhibitor N-[N-(3,5-difluorophenacetyl-L-alanyl)]-S-phenylglycine t-butyl ester (DAPT) or vehicle control for 6 h. The subcellular distribution of APP-CTF-YFP within living cells was analyzed by confocal laser scanning microscopy (LSM).
as §1, with “(i)” for “To quantify the effects of NSAIDs on gamma-secretase activity, HEK293 expressing SPA4CT-YFP were spread into a 96-well dish and were treated with NSAIDs or controls for 6 h. Intensity of YFP fluorescence was quantified with adjusted filters in a 96-well fluorescence reader (company BertholdTech, Mithras). (i)”, “Drug candidates which inhibit the biological activity (i.e. cleavage of the substrate) of gamma-secretase are discarded.” left out

With `CC(C)OC(=O)C(C)(C)Oc1ccc(C(=O)c2ccc(Cl)cc2)cc1` [Fenofibrate] the “Average fluorescence compared to the DMSO control” value (gamma-secretase [1]) was “slight increase of fluorescence”, the “Secreted amount of Abeta38” value [2] was “does not substantially reduce” and the “Secreted amount of Abeta40” value [2] was “does not substantially reduce”. The “Secreted amount of Abeta42” value [2] was “not from APP G33A-transfected cells”, the “Secreted amount of Abeta38” value [3] was “also low; also recorded: does not substantially reduce” and the “Secreted amount of Abeta40” value [3] was “also low; also recorded: does not substantially reduce”. For the same compound, the “Secreted amount of Abeta42” value [3] was “increases in a concentration dependent manner” and the “Localization of APP-CTF-YFP (confocal images)” value (gamma-secretase [4]) was “More cells showing a clear localization of APP-CTF within the cell membrane and the ER/nuclear membrane are present”.
